Experimental findings from publication PMC9705874 are described below.

For at least one entry, the source does not settle the construct or the ends of the probe. A negative result means that nothing was seen under these conditions. Tags and fusion partners may be left off the protein sequences shown. A weaker result is weaker than the reference pair of the same experiment.

The series addresses T1, LexA (Myxococcus xanthus DK1622) (UniProt Q1D406).
T1 sequence (looked up, limits assumed): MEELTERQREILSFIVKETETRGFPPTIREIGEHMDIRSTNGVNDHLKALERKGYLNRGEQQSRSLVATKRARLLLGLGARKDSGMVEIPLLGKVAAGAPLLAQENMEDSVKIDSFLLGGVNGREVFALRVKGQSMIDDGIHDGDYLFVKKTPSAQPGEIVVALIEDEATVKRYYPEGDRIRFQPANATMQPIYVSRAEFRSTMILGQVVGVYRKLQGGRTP
The series is described as follows: EMSA. The note with it: 25 mM Tris-HCl pH 7.0, 50 mM NaCl, 4% glycerol, 1 mM DTT, 32 C 20 min; 0.8% agarose gel at 4 C; recombinant protein; protein details: 6xHis (pET15b, NdeI/BamHI); label: 5' biotin.
Turning to “TTTTTTGTCGGACCTGCTAGGGTGTTCAGGTACCA (double strand) [recN SOS box]”, the binding result is recorded as “no binding”. Consider “TTTTTTGTTGACTCTACACGTCTGTTCAGGGAGAG (double strand) [lexA SOS box]”, for which the binding result is reported as “binds”. For the sequence “TTTTTTTGATTACCTGCTTGTTTGTTCAGGCGCGT (double strand) [pafBC SOS box]”, the binding result is “binds more weakly”. With “TTTTTTTCGCGTACTAAAAGCGCGTTCAGGTGAGC (double strand) [recA2 SOS box]” the entry was “binds”.
